The target in assay [1] is T1, cingulin (CGN) (human (endogenous in A253)) (UniProt Q9P2M7).
T1 sequence: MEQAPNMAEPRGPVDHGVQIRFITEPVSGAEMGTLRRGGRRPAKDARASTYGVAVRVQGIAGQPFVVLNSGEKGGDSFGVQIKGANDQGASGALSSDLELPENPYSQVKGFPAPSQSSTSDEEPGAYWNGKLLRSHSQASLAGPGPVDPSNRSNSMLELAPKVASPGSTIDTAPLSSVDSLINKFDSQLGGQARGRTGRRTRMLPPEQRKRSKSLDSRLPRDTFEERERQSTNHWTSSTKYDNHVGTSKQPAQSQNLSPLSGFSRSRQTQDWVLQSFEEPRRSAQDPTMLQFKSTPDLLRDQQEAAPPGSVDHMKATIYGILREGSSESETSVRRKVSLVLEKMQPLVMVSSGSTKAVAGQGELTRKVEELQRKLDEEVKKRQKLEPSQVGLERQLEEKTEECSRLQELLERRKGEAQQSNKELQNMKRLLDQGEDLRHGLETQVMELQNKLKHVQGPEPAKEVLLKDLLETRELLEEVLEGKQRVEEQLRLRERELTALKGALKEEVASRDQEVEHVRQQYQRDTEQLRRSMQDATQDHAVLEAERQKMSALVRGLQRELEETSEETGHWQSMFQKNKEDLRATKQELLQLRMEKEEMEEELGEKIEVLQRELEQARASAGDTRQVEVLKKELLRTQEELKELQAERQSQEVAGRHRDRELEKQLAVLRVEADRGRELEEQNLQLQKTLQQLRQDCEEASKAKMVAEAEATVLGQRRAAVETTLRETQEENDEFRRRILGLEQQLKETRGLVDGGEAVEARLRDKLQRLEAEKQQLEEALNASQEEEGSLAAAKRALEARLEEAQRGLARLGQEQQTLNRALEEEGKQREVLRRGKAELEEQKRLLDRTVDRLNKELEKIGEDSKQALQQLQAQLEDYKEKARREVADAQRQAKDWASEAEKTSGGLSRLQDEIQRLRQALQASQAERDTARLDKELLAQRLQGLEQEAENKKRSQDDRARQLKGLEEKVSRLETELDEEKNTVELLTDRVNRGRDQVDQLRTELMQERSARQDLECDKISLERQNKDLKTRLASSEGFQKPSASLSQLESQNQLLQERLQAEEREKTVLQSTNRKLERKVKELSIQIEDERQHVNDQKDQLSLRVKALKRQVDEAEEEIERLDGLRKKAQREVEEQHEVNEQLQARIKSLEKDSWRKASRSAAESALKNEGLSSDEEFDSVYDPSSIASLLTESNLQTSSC
The experiment in a line: co-IP; A253 cells treated with or without TSA and JNJ (quisinostat) at 10 uM in the presence of EW-7197 and SP600125 at 10 uM; NP-40 lysis buffer (50 mM Tris-HCl, 2% NP-40, 0.25 mM sodium deoxycholate, 150 mM NaCl, 2 mM EGTA); polyclonal anti-CGN antibody on protein A-Sepharose CL-4B overnight at 4 °C; Western blot of the immunoprecipitates. On the technique in general: Immunoblotting shows a protein as a band on a membrane.

Chains of the proteins cited; added tags and fusions are not shown.
UniProt Q8N4S9: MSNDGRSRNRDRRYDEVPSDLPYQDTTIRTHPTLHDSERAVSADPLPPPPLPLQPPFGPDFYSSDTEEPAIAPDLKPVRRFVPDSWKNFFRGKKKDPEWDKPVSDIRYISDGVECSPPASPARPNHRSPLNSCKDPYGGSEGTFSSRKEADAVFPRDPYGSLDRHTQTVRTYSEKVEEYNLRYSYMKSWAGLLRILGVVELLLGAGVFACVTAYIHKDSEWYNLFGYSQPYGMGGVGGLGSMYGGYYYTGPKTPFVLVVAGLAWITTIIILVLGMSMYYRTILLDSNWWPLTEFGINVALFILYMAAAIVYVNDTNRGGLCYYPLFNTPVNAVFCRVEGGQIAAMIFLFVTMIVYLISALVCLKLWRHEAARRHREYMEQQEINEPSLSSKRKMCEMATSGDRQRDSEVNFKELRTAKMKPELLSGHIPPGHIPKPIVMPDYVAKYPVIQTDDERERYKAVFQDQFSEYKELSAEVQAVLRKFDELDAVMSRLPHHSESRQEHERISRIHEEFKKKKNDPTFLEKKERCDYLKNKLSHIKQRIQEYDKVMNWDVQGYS

Assay [2] concerns the target T1, cingulin (CGN) (human (endogenous in A253)). The description is as above. The source holds these as a separate data set.

Read-outs that look alike come from different tables or passages of the source. No constants are given. Whether binding was seen depends on the method and setting. In cells and extracts the contact can be indirect. Some entries that bind do so weakly or less than the wild type.

Regarding “tricellulin (TRIC) (from UniProt Q8N4S9 1-558)”, in assay [1], the binding entry is “binds weakly”.

B1: claudin-7 (CLDN-7) (protein, UniProt O95471 1-211)
chain: MANSGLQLLGFSMALLGWVGLVACTAIPQWQMSSYAGDNIITAQAMYKGLWMDCVTQSTGMMSCKMYDSVLALSAALQATRALMVVSLVLGFLAMFVATMGMKCTRCGGDDKVKKARIAMGGGIIFIVAGLAALVACSWYGHQIVTDFYNPLIPTNIKYEFGPAIFIGWAGSALVILGGALLSCSCPGNESKAGYRVPRSYPKSNSSKEYV
With B1, the binding result in assay [2] is “no binding”.

B2: angulin-1/lipolysis-stimulated lipoprotein receptor (LSR) (protein, UniProt Q86X29 1-649)
chain: MQQDGLGVGTRNGSGKGRSVHPSWPWCAPRPLRYFGRDARARRAQTAAMALLAGGLSRGLGSHPAAAGRDAVVFVWLLLSTWCTAPARAIQVTVSNPYHVVILFQPVTLPCTYQMTSTPTQPIVIWKYKSFCRDRIADAFSPASVDNQLNAQLAAGNPGYNPYVECQDSVRTVRVVATKQGNAVTLGDYYQGRRITITGNADLTFDQTAWGDSGVYYCSVVSAQDLQGNNEAYAELIVLGRTSGVAELLPGFQAGPIEDWLFVVVVCLAAFLIFLLLGICWCQCCPHTCCCYVRCPCCPDKCCCPEALYAAGKAATSGVPSIYAPSTYAHLSPAKTPPPPAMIPMGPAYNGYPGGYPGDVDRSSSAGGQGSYVPLLRDTDSSVASEVRSGYRIQASQQDDSMRVLYYMEKELANFDPSRPGPPSGRVERAMSEVTSLHEDDWRSRPSRGPALTPIRDEEWGGHSPRSPRGWDQEPAREQAGGGWRARRPRARSVDALDDLTPPSTAESGSRSPTSNGGRSRAYMPPRSRSRDDLYDQDDSRDFPRSRDPHYDDFRSRERPPADPRSHHHRTRDPRDNGSRSGDLPYDGRLLEEAVRKKGSEERRRPHKEEEEEAYYPPAPPPYSETDSQASRERRLKKNLALSRESLVV
As for B2, the binding entry in assay [2] is reported as “no binding”.

For the origin of these results see article PMC9179926.
